PubChem BioAssay AID504791, Drosophila RNAi Screening Center | 2011
The screen tested about 23,000 reagents; shown is a random part of those with a known target gene and a result. Of all reagents, 199 (0.86%) were called active. 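Plate-scaled ratios behind the calls are not deposited; printed light signals are raw; many rows marked increased or decreased are still called inactive.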 Names joined by + are all predicted targets of the reagent.

- Screen: 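Genes whose knock-down strengthens or weakens small-RNA reporter silencing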 (primary screen)
- Cells: Drosophila S2-derived reporter cells
- Reagent: long dsRNA against Drosophila genes, about 150-250 ng dsRNA per well (siRNA assay); about 80-120 ng (miRNA assay)
- Time to read-out: about 5 days (siRNA assay); about 4 days (miRNA assay)
- Challenge: copper sulfate induction of reporters: 25 µM (siRNA assay); 200 mM stated (miRNA assay), 1-2 days before reading
- Detection: 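Per-well ratio of Renilla over firefly light, expressed relative to that plate's average ratio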
- Direction: siRNA reporter hit score: higher = 3 marks a strong hit with raised ratio; -3 a strong hit with lowered ratio
- Rule for the call: 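First-pass picks had plate-scaled ratios over 1.5 for the siRNA assay, over 1.6 for the miRNA assay, or under 0.6; two distinct dsRNAs had to score alike on retest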

no.	gene knocked down	dsRNA	siRNA reporter hit score	stable siRNA reporter change	miRNA reporter change	stable assay Renilla, run 1 (luminescence)	stable assay firefly, run 1 (luminescence)	call
1	Evi5	DRSC19421				5724	4.55e5	inactive
2	Traf4	DRSC00445	-3	reporter ratio lowered past the hit cutoff		7385	7.84e5	inactive
3	Traf4	DRSC00794				21380	5.33e5	inactive
4	CG12857	DRSC06197				7040	3.61e5	inactive
5	Trp1	DRSC03465				7315	5.40e5	inactive
6	CG31270 (retired record)	DRSC22252				9315	7.81e5	inactive
7	alpha-Est6	DRSC12618				10136	5.50e5	inactive
8	pod1	DRSC18362				7563	4.12e5	inactive
9	psq	DRSC07668		reporter ratio raised past the hit cutoff		6858	2.19e5	inactive
10	psq	DRSC23094		reporter ratio lowered past the hit cutoff		2248	2.95e5	inactive
11	ProtA	DRSC03372				7674	5.76e5	inactive
12	Ih	DRSC07445				7947	3.78e5	inactive
13	CG42376 + cin	DRSC18752				7824	3.43e5	inactive
14	Pof	DRSC04405				18632	1.60e6	inactive
15	Shmt	DRSC18264				5147	2.73e5	inactive
16	CG4025	DRSC18523				5219	3.13e5	inactive
17	CG5597	DRSC04517				10219	1.61e6	inactive
18	mkg-p + Tpt	DRSC10777				5551	4.65e5	inactive
19	Trs23	DRSC03190				7256	4.08e5	inactive
20	UBL3	DRSC20298				5671	3.78e5	inactive
21	UBL3	DRSC23292				3332	3.57e5	inactive
22	Ktl	DRSC14270				9134	3.18e5	inactive
23	CG6126	DRSC15971				9111	4.07e5	inactive
24	Cog4	DRSC03057				15291	1.62e6	inactive
25	GAA1	DRSC18267				8908	6.46e5	inactive
26	Sp1	DRSC17622				5722	4.27e5	inactive
27	Sp1	DRSC18717				5355	3.85e5	inactive
28	fd19B	DRSC20688				2995	3.40e5	inactive
29	CG15731	DRSC19698				5416	4.29e5	inactive
30	CG15731	DRSC21820				10831	4.82e5	inactive
31	Asciz	DRSC08421				7118	4.61e5	inactive
32	CG8191	DRSC20091				5019	4.26e5	inactive
33	CG14102	DRSC10103				7327	3.45e5	inactive
34	CG5934	DRSC15922				6064	3.77e5	inactive
35	corto	DRSC12375				6840	4.18e5	inactive
36	corto	DRSC22279				9299	5.16e5	inactive
37	corto	DRSC22988				5638	3.99e5	inactive
38	pygo	DRSC14322				8336	5.19e5	inactive
39	Rcd6	DRSC06054				8755	2.50e5	inactive
40	CG14220	DRSC19577				6803	4.09e5	inactive
41	sub	DRSC06125				10828	4.12e5	inactive
42	Gpat4	DRSC04345				30338	1.21e6	inactive
43	CG10674	DRSC09775				6574	4.09e5	inactive
44	CG43386	DRSC17980				4639	3.39e5	inactive
45	snf	DRSC18835				17354	7.88e5	inactive
46	CG13053	DRSC09934				6522	3.42e5	inactive
47	CG33919	DRSC04940				4435	4.19e5	inactive
48	gek	DRSC04688				44535	1.41e6	inactive
49	eve	DRSC07614				6826	4.81e5	inactive
50	CG10561	DRSC02068				86776	1.15e6	inactive
51	nenya	DRSC13838				6466	4.08e5	inactive
52	enc	DRSC08716				6698	4.23e5	inactive
53	DNAlig4	DRSC19436				5544	5.79e5	inactive
54	CG31183	DRSC14403				7575	3.79e5	inactive
55	CG31183	DRSC15554				10630	5.29e5	inactive
56	Vsx1	DRSC18349				3676	2.32e5	inactive
57	Vsx1	DRSC18350				4200	1.76e5	inactive
58	Vsx1	DRSC23004				3636	2.78e5	inactive
59	spdo	DRSC13988				8819	4.13e5	inactive
60	Klp59D	DRSC04118				4754	2.98e5	inactive
61	ATP7	DRSC19819				7070	5.41e5	inactive
62	kn	DRSC05505				6520	3.98e5	inactive
63	kn	DRSC05507				6626	4.92e5	inactive
64	kn	DRSC06196				7390	3.58e5	inactive
65	kn	DRSC07637				7056	4.34e5	inactive
66	kn	DRSC21533				8390	4.15e5	inactive
67	Csgalnact	DRSC06228				5990	2.96e5	inactive
68	Cpr76Bd	DRSC11063				5979	3.49e5	inactive
69	CG31869	DRSC02582				7775	3.51e5	inactive
70	CG31869	DRSC02674				7202	3.55e5	inactive
71	Dsp1	DRSC20315			reporter ratio raised past the hit cutoff	4000	2.12e5	inactive
72	Dsp1	DRSC23078				4975	3.38e5	inactive
73	Tom70	DRSC02990				5347	4.57e5	inactive
74	CG7523	DRSC16254				9648	4.04e5	inactive
75	CG13912	DRSC08381	3			5722	3.51e5	inactive
76	toe	DRSC09174				3419	3.48e5	inactive
77	toe	DRSC09783				5679	3.09e5	inactive
78	Brf	DRSC13228				5467	5.11e5	inactive
79	Brf	DRSC14166				5300	3.15e5	inactive
80	Brf	DRSC14167				5782	3.59e5	inactive
81	CG11122	DRSC19382				7998	4.93e5	inactive
82	Or83c	DRSC12359				7715	3.94e5	inactive
83	Mst36Fa	DRSC21564				9211	6.32e5	inactive

Individual results from the entries so far:
Under “stable assay firefly, run 1 (luminescence)”, Dsp1 [DRSC20315] has 2.12e5
CG15731 [DRSC19698], call → inactive
For “call”, CG31183 [DRSC14403] is entered as inactive
